Laboratory results published in the supplement of paper PMC10849652.
This is one part of the list.

Amino acid sequences for entries named in this document (tags omitted). A change or cut given only in a name is not applied to a line headed by its entry.
UniProt Q8TEQ6: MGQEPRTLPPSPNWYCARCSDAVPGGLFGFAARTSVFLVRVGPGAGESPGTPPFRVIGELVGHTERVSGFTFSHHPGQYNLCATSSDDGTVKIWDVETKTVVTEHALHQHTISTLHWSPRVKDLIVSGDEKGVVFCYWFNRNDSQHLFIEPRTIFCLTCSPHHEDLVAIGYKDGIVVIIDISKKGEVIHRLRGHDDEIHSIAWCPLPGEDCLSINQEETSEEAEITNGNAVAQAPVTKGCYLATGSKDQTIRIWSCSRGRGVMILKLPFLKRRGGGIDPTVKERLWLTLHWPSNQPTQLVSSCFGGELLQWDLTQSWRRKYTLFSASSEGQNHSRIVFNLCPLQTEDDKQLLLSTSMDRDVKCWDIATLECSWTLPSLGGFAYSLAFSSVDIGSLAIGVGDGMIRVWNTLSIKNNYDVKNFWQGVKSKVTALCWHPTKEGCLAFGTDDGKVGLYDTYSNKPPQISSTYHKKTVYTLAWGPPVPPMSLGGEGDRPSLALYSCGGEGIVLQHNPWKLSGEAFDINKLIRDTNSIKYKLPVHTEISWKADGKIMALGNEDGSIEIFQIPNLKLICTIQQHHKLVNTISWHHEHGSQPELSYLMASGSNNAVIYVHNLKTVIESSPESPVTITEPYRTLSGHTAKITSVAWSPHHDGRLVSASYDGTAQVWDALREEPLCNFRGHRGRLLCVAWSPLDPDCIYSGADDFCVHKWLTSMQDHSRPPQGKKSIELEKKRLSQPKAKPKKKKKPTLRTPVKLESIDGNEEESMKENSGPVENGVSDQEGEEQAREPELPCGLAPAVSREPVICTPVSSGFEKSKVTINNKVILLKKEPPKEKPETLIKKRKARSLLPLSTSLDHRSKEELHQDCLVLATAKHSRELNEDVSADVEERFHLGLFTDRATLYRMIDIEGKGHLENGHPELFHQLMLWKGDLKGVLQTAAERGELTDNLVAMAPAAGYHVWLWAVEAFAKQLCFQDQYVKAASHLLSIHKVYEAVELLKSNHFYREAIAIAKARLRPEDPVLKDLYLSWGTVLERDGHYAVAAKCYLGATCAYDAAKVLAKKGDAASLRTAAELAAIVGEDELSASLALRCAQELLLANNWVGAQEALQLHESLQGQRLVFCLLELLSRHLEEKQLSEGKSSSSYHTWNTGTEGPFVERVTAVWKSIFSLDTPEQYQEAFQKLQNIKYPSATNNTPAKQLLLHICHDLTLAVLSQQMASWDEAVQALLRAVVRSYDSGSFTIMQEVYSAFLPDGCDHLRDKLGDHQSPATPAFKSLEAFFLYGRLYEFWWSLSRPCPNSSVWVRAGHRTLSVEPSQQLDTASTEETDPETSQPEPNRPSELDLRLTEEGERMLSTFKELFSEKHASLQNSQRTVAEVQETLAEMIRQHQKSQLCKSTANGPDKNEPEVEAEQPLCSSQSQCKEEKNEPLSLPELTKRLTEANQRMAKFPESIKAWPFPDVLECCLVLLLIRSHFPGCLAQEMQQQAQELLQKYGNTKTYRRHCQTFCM
UniProt Q9NZ52: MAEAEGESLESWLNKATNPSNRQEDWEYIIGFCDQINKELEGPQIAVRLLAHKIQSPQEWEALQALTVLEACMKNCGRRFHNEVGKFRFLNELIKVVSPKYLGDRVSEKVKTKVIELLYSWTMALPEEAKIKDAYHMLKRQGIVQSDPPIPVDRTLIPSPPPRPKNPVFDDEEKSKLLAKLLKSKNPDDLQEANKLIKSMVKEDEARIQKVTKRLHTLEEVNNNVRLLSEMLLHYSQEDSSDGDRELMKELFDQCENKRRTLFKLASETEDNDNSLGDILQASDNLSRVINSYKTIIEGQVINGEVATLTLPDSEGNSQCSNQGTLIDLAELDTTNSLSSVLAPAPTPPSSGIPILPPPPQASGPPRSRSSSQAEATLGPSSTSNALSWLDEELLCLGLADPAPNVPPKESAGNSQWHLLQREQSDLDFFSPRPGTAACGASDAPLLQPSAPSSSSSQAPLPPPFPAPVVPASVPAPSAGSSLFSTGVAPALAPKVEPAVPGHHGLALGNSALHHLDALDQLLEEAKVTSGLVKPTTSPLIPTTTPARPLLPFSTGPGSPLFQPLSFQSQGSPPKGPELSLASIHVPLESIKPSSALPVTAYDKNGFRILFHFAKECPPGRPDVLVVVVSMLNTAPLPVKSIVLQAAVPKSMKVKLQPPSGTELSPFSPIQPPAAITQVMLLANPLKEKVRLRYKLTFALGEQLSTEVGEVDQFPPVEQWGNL
UniProt Q92538, whole entry, looked up: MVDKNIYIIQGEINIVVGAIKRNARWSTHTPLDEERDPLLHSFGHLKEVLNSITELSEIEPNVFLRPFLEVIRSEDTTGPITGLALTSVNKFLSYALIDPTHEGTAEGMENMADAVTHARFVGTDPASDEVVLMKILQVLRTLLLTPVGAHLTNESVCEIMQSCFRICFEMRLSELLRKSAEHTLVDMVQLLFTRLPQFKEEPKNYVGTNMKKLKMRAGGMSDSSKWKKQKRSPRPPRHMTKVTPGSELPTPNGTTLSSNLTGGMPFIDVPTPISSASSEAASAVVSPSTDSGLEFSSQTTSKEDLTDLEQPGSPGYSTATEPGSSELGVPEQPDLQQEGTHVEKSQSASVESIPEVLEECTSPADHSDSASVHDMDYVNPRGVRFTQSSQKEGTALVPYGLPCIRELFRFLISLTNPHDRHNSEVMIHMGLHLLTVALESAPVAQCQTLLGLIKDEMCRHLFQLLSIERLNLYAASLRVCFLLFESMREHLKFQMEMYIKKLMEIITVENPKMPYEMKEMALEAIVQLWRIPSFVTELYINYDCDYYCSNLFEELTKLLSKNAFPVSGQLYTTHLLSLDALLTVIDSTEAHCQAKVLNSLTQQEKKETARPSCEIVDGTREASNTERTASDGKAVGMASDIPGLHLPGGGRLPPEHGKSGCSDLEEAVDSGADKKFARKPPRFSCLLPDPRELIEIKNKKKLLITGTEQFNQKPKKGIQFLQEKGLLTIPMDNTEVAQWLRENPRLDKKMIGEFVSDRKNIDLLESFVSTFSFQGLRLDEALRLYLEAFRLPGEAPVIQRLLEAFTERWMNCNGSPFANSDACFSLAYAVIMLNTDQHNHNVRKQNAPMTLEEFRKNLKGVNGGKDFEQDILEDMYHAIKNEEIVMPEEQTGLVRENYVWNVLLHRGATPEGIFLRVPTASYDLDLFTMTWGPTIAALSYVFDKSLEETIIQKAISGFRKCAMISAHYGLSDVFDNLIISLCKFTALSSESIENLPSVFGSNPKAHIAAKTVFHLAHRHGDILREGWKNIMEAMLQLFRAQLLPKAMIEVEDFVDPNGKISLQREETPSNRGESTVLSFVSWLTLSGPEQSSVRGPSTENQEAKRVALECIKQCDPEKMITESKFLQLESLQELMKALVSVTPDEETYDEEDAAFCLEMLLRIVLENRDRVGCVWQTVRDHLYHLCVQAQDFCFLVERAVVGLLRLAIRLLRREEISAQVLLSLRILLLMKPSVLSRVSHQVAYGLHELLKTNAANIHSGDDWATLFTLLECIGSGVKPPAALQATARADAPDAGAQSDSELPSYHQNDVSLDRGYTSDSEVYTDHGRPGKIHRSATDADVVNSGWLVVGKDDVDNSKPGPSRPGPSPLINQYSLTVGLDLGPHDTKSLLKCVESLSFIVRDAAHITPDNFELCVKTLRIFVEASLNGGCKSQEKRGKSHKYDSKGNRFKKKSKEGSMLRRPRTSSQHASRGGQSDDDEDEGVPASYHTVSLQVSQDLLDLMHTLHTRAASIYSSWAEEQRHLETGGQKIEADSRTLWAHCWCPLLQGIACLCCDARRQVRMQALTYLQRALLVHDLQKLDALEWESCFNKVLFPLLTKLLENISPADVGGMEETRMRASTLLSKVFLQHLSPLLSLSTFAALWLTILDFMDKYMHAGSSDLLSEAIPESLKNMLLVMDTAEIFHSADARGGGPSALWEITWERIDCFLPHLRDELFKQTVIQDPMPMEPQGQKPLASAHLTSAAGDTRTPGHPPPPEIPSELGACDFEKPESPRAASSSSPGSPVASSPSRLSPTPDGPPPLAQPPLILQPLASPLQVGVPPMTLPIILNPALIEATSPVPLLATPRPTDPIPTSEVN
UniProt P48507: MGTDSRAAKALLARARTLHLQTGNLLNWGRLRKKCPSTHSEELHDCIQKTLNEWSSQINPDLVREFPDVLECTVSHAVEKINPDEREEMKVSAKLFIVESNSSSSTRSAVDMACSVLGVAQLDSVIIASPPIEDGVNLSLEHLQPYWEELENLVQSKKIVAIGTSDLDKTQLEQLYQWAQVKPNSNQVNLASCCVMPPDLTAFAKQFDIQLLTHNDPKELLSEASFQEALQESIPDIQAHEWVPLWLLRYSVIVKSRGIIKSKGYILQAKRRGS
UniProt Q6ZNA5: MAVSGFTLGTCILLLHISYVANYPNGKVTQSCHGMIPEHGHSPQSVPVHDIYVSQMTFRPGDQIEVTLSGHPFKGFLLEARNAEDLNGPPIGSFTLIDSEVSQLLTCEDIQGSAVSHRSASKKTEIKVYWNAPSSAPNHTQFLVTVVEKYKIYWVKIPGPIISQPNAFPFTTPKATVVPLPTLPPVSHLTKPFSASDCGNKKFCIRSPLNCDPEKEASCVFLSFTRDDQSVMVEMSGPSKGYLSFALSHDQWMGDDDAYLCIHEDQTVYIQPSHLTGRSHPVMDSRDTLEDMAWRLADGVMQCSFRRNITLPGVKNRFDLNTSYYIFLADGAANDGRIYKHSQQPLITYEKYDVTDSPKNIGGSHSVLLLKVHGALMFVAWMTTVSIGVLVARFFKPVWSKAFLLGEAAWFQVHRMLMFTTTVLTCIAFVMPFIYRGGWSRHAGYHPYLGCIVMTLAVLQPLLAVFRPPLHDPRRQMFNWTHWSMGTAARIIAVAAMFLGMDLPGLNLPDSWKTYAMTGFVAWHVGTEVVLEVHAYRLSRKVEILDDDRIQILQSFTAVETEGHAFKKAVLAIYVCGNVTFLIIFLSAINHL
UniProt O75223: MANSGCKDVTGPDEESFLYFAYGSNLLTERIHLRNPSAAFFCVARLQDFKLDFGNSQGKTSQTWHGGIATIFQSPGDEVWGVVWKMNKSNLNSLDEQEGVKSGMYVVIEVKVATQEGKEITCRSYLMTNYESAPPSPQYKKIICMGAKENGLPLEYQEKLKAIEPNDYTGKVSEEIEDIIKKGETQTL
UniProt P04406: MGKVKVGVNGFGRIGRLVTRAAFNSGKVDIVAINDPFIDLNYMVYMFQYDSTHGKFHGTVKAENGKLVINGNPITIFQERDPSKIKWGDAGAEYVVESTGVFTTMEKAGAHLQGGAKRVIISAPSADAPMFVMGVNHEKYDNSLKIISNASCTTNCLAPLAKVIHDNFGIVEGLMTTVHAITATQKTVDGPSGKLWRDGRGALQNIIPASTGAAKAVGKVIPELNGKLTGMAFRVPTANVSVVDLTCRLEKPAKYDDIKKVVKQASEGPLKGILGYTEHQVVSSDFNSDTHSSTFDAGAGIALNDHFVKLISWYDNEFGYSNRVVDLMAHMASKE
UniProt Q06546: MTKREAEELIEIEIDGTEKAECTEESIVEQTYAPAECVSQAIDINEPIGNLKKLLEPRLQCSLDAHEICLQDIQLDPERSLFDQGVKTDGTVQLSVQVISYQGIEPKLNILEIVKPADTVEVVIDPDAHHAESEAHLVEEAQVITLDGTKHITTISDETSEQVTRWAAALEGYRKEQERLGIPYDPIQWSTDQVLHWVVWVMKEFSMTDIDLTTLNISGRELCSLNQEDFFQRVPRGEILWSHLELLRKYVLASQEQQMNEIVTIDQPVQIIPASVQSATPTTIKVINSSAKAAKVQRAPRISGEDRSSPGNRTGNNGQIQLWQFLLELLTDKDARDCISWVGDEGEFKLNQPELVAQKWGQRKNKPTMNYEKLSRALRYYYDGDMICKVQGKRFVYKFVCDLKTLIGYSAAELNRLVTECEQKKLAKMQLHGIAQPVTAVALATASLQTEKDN
UniProt Q92820: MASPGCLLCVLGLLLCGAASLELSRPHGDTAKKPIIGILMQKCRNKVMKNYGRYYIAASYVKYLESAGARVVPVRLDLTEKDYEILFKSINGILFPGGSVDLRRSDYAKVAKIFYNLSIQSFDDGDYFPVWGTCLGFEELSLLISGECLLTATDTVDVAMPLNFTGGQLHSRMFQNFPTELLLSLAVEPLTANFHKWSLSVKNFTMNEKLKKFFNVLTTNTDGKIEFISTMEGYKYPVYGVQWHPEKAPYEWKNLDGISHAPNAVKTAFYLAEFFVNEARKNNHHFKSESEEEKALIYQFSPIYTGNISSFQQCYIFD
UniProt P15407: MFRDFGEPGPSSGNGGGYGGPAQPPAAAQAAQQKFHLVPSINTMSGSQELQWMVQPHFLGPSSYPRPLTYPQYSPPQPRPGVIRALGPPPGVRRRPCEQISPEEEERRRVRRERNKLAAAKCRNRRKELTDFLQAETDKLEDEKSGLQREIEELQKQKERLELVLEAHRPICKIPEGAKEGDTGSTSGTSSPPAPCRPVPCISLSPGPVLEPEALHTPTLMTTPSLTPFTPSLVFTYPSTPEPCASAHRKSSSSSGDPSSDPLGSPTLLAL

Experiments:
Assay in all cases: log2 fold change, soluble protein after heating vs DMSO (PISA); higher = thermal stabilisation; K562 cells, 10 uM, 30 min; active = over 0.2 and 3.5 SD of the protein, either way, in both replicates (recomputed)
[1] = compound: COC1=CC=C(C=C1)CN2C=CC3=C2C=C(C=C3)C(=O)NO
How it was run: (§1)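 K562 cells at 2×10^6 cells/mL were treated with 10 μM compound for 30 min. Aliquots were heated for 3 min across 48°C-58°C, pooled, and extracted in PBS with 0.5% NP-40 at 4°C; soluble protein was the supernatant after 21,000xg for 90 min. Soluble protein was quantified by TMTpro 16plex LC-MS/MS with channel sums equalised, and reported as log2 fold change in thermal stability against DMSO controls, with values from duplicates.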

filanesib = compound: CON(C)C(=O)N1N=C(c2cc(F)ccc2F)S[C@@]1(CCCN)c1ccccc1 [filanesib]
How it was run: as §1

zotarolimus = compound: CO[C@H]1C[C@@H]2CC[C@@H](C)[C@@](O)(O2)C(=O)C(=O)N2CCCC[C@H]2C(=O)O[C@H]([C@H](C)C[C@@H]2CC[C@H](n3cnnn3)[C@H](OC)C2)CC(=O)[C@H](C)/C=C(\C)[C@@H](O)[C@@H](OC)C(=O)[C@H](C)C[C@H](C)/C=C/C=C/C=C/1C [zotarolimus]
How it was run: as §1

idasanutlin = compound: COc1cc(C(=O)O)ccc1NC(=O)[C@@H]1N[C@@H](CC(C)(C)C)[C@](C#N)(c2ccc(Cl)cc2F)[C@H]1c1cccc(Cl)c1F [idasanutlin]
How it was run: as §1

alisertib = compound: COc1cc(Nc2ncc3c(n2)-c2ccc(Cl)cc2C(c2c(F)cccc2OC)=NC3)ccc1C(=O)O [alisertib]
How it was run: as §1

[2] = compound: COc1cc2nc(-c3cc(F)ccc3O)nc(N[C@@H]3CNC[C@H]3C(C)(C)O)c2cc1OC
How it was run: as §1

gefitinib = compound: COc1cc2ncnc(Nc3ccc(F)c(Cl)c3)c2cc1OCCCN1CCOCC1 [gefitinib]
How it was run: as §1

[3] = compound: COc1cccc2cc(-c3nc([C@H]4CC[C@H](C(=O)O)CC4)n4ncnc(N)c34)[nH]c12
How it was run: as §1

lapatinib = compound: CS(=O)(=O)CCNCc1ccc(-c2ccc3ncnc(Nc4ccc(OCc5cccc(F)c5)c(Cl)c4)c3c2)o1 [lapatinib]
How it was run: as §1

pictilisib = compound: CS(=O)(=O)N1CCN(Cc2cc3nc(-c4cccc5[nH]ncc45)nc(N4CCOCC4)c3s2)CC1 [pictilisib]
How it was run: as §1

| Target | log2 fold change [1] | log2 fold change (filanesib) | log2 fold change (zotarolimus) | log2 fold change (idasanutlin) | log2 fold change (alisertib) | log2 fold change [2] | log2 fold change (gefitinib) | log2 fold change [3] | log2 fold change (lapatinib) | log2 fold change (pictilisib) |
| --- | --- | --- | --- | --- | --- | --- | --- | --- | --- | --- |
| GEMIN5 (UniProt Q8TEQ6) | inactive: 0.017 | inactive: 0.037 | inactive: 0.039 | inactive: -0.024 | inactive: -0.041 | active: -0.235 | inactive: 0.013 | inactive: -0.035 | inactive: 0.015 | inactive: -0.021 |
| FXN (UniProt Q16595) | inactive: -0.143 | inactive: -0.09 | inactive: 0.022 | inactive: -0.045 | inactive: 0.027 | inactive: -0.049 | inactive: -0.052 | inactive: 0.022 | inactive: -0.014 | inactive: -0.026 |
| GALNT5 (UniProt Q7Z7M9) | inactive: 0.013 | inactive: -0.049 | inactive: 0.007 | inactive: -0.076 | inactive: -0.023 | inactive: -0.01 | inactive: 0.093 | inactive: 0.022 | inactive: 0.035 | inactive: 0.007 |
| GGCX (UniProt P38435) | inactive: 0.036 | inactive: -0.056 | inactive: -0.016 | inactive: -0.053 | inactive: -0.47 | inactive: -0.028 | inactive: -0.032 | inactive: -0.011 | inactive: -0.042 | inactive: 0.097 |
| GFER (UniProt P55789) | inactive: -0.181 | inactive: -0.024 | inactive: -0.011 | inactive: -0.139 | inactive: 0.078 | inactive: -0.078 | inactive: -0.015 | inactive: -0.047 | inactive: 0.029 | inactive: 0.029 |
| GCLC (UniProt P48506) | inactive: -0.009 | inactive: -0.064 | inactive: -0.021 | inactive: -0.045 | inactive: -0.033 | inactive: 0.061 | inactive: -0.001 | inactive: 0.027 | inactive: -0.018 | inactive: 0.083 |
| GGA3 (UniProt Q9NZ52) | inactive: -0.081 | inactive: 0.037 | inactive: 0.053 | inactive: 0.056 | inactive: -0.035 | inactive: 0.093 | inactive: 0.018 | inactive: -0.043 | inactive: 0.003 | inactive: -0.048 |
| GBF1 (UniProt Q92538) | inactive: -0.005 | inactive: 0.038 | inactive: 0.008 | inactive: -0.037 | inactive: -0.013 | inactive: 0.025 | inactive: -0.012 | inactive: -0.054 | inactive: -0.036 | inactive: -0.036 |
| GALNS (UniProt P34059) | inactive: 0.133 | inactive: -0.094 | inactive: 0.02 | inactive: -0.043 | inactive: -0.145 | inactive: -0.051 | inactive: 0.019 | inactive: 0.043 | inactive: 0.006 | inactive: 0.042 |
| GCLM (UniProt P48507) | inactive: 0.066 | inactive: -0.004 | inactive: 0.071 | inactive: -0.124 | inactive: -0.003 | inactive: 0.026 | inactive: 0.06 | inactive: -0.057 | inactive: 0.011 | inactive: 0.046 |
| GALC (UniProt P54803) | inactive: 0.007 | inactive: -0.017 | inactive: -0.071 | inactive: -0.121 | inactive: 0.049 | inactive: 0.099 | inactive: -0.014 | inactive: 0.066 | inactive: 0.042 | inactive: 0.159 |
| FRYL (UniProt O94915) | inactive: -0.033 | inactive: 0.042 | inactive: 0.002 | inactive: -0.039 | inactive: -0.1 | inactive: 0.011 | inactive: -0.034 | inactive: 0.022 | inactive: 0.043 | inactive: 0.054 |
| FUBP1 (UniProt Q96AE4) | inactive: 0.094 | inactive: -0.078 | inactive: 0.014 | inactive: 0.117 | inactive: -0.022 | inactive: 0.05 | inactive: 0.016 | inactive: 0.1 | inactive: 0.156 | inactive: -0.198 |
| FRRS1 (UniProt Q6ZNA5) | inactive: 0.019 | inactive: -0.019 | inactive: -0.027 | inactive: 0.028 | inactive: -0.001 | inactive: -0.134 | inactive: -0.027 | inactive: -0.016 | inactive: 0.015 | inactive: 0.01 |
| FUCA2 (UniProt Q9BTY2) | inactive: -0.094 | inactive: 0.002 | inactive: -0.019 | inactive: 0.177 | inactive: -0.044 | inactive: 0.011 | inactive: -0.013 | inactive: 0.045 | inactive: 0.025 | inactive: 0.011 |
| GGCT (UniProt O75223) | inactive: -0.01 | inactive: -0.094 | inactive: 0.001 | inactive: -0.075 | inactive: 0.112 | inactive: 0.012 | inactive: 0.014 | inactive: 0.031 | inactive: -0.028 | inactive: 0.114 |
| GALNT11 (UniProt Q8NCW6) | inactive: -0.012 | inactive: -0.028 | inactive: -0.019 | inactive: -0.042 | inactive: 0 | inactive: 0.052 | inactive: 0.013 | inactive: 0.062 | inactive: -0.011 | inactive: 0.026 |
| GAPDH (UniProt P04406) | inactive: 0.042 | inactive: -0.051 | inactive: 0.05 | inactive: 0 | inactive: -0.078 | inactive: -0.065 | inactive: -0.004 | inactive: 0.04 | inactive: 0.01 | inactive: -0.041 |
| GAGE12F (UniProt P0CL80) | inactive: -0.007 | inactive: 0.02 | inactive: -0.054 | inactive: 0.055 | inactive: -0.312 | inactive: -0.02 | inactive: -0.03 | inactive: 0.123 | inactive: -0.028 | inactive: 0.108 |
| GARS1 (UniProt H7C443) | inactive: -0.5 | inactive: 0.206 | inactive: -0.013 | inactive: 0.018 | inactive: -0.011 | inactive: 0.215 | inactive: -0.032 | inactive: 0.122 | inactive: -0.409 | inactive: 0.28 |
| G3BP2 (UniProt Q9UN86) | inactive: 0 | inactive: 0.293 | inactive: 0.014 | inactive: 0.219 | inactive: -0.023 | inactive: -0.085 | inactive: -0.033 | inactive: -0.131 | inactive: 0.12 | inactive: -0.212 |
| GABPA (UniProt Q06546) | inactive: 0.01 | inactive: -0.111 | inactive: 0.063 | inactive: -0.025 | inactive: -0.002 | inactive: -0.134 | inactive: 0.032 | inactive: 0.029 | inactive: 0.048 | inactive: 0.02 |
| GCHFR (UniProt P30047) | inactive: 0.014 | inactive: -0.02 | inactive: -0.063 | inactive: -0.222 | inactive: -0.007 | inactive: 0.016 | inactive: -0.035 | inactive: 0.117 | inactive: 0.006 | inactive: 0.279 |
| GALNT4 (UniProt Q8N4A0) | inactive: -0.029 | inactive: 0.066 | inactive: -0.017 | inactive: -0.099 | inactive: -0.015 | inactive: 0.011 | inactive: 0.025 | inactive: 0.025 | inactive: -0.028 | inactive: 0.172 |
| GGH (UniProt Q92820) | inactive: -0.045 | inactive: -0.033 | inactive: -0.024 | inactive: -0.021 | inactive: -0.009 | inactive: -0.008 | inactive: -0.033 | inactive: 0.057 | inactive: 0.002 | inactive: 0.034 |
| FOSL1 (UniProt P15407) | inactive: -0.131 | inactive: 0.093 | inactive: -0.07 | inactive: 0.084 | inactive: -0.178 | inactive: 0.091 | inactive: 0.032 | inactive: -0.029 | inactive: 0.125 | inactive: 0.001 |

Reformatted in CSV form: entries from further up
Target,log2 fold change [1],log2 fold change (filanesib),log2 fold change (zotarolimus),log2 fold change (idasanutlin),log2 fold change (alisertib),log2 fold change [2],log2 fold change (gefitinib),log2 fold change [3],log2 fold change (lapatinib),log2 fold change (pictilisib)
FUBP1 (UniProt Q96AE4),inactive: 0.094,inactive: -0.078,inactive: 0.014,inactive: 0.117,inactive: -0.022,inactive: 0.05,inactive: 0.016,inactive: 0.1,inactive: 0.156,inactive: -0.198
FRRS1 (UniProt Q6ZNA5),inactive: 0.019,inactive: -0.019,inactive: -0.027,inactive: 0.028,inactive: -0.001,inactive: -0.134,inactive: -0.027,inactive: -0.016,inactive: 0.015,inactive: 0.01
FUCA2 (UniProt Q9BTY2),inactive: -0.094,inactive: 0.002,inactive: -0.019,inactive: 0.177,inactive: -0.044,inactive: 0.011,inactive: -0.013,inactive: 0.045,inactive: 0.025,inactive: 0.011
GGCT (UniProt O75223),inactive: -0.01,inactive: -0.094,inactive: 0.001,inactive: -0.075,inactive: 0.112,inactive: 0.012,inactive: 0.014,inactive: 0.031,inactive: -0.028,inactive: 0.114
GALNT11 (UniProt Q8NCW6),inactive: -0.012,inactive: -0.028,inactive: -0.019,inactive: -0.042,inactive: 0,inactive: 0.052,inactive: 0.013,inactive: 0.062,inactive: -0.011,inactive: 0.026
GAPDH (UniProt P04406),inactive: 0.042,inactive: -0.051,inactive: 0.05,inactive: 0,inactive: -0.078,inactive: -0.065,inactive: -0.004,inactive: 0.04,inactive: 0.01,inactive: -0.041
